These are yes or no findings as the source states them, for the method shown. Binding seen in cells or lysates may run through a third protein. Some results given as binding are weak or reduced against the parent protein; the word gives no strength.
Target: hexa-histidine tagged MazF6 (Toxin) (Mycobacterium tuberculosis) (UniProt P9WII3)
Experiment: pull-down

By UniProt entry, the sequences of proteins in these tests, tags left out.
UniProt P9WII3: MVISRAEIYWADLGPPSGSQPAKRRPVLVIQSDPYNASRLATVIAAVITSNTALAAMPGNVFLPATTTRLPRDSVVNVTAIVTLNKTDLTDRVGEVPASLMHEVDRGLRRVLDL

B1: MazE6 antitoxin (residue 1-82) (protein, UniProt P9WJ87 1-82)
chain: MKTAISLPDETFDRVSRRASELGMSRSEFFTKAAQRYLHELDAQLLTGQIDRALESIHGTDEAEALAVANAYRVLETMDDEW
Question: B1 was tested. Which binding did it give?
Answer: Its binding is “binds”.
